These are yes or no findings as the source states them, for the method shown.
Biological target: MEKK1 TOG domain, MEKK1(542–888) (human) (UniProt Q13233)
Assay: SEC-MALS

binding: no binding
B1: MEKK1 TOG domain, MEKK1(542–888) (domain or fragment, UniProt Q13233 542-888)
chain: THYGTQQIPPAYKDLAEPWIQVFGMELVGCLFSRNWNVREMALRRLSHDVSGALLLANGESTGNSGGSSGSSPSGGATSGSSQTSISGDVVEACCSVLSMVCADPVYKVYVAALKTLRAMLVYTPCHSLAERIKLQRLLQPVVDTILVKCADANSRTSQLSISTLLELCKGQAGELAVGREILKAGSIGIGGVDYVLNCILGNQTESNNWQELLGRLCLIDRLLLEFPAEFYPHIVSTDVSQAEPVEIRYKKLLSLLTFALQSIDNSHSMVGKLSRRIYLSSARMVTTVPHVFSKLLEMLSVSSSTHFTRMRRRLMAIADEVEIAEAIQLGVEDTLDGQQDSFLQAS
